In PMC7819943, “Rice protein-binding microarrays: a tool to detect cis-acting elements near promoter regions in rice”:
The list shows a part of the results.

Chains of the proteins cited; added tags and fusions are not shown.
UniProt Q0JBA9, entry or part of it: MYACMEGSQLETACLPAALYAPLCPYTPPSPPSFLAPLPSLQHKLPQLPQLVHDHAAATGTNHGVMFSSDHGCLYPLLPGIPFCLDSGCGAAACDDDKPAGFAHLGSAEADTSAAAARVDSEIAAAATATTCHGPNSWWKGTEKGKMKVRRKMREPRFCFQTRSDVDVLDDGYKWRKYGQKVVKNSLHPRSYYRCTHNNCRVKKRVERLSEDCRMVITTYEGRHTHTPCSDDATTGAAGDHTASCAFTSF

The sequences below were run against OsWRKY34 (Oryza sativa, UniProt Q0JBA9 1-250) (assay: protein-binding microarray (RPBM); PBS, 2% BSA, 51.3 ng/ul salmon testes DNA, 50 uM zinc acetate, 200 nM TF, 25 C, 1 h; high values mean tight binding). Conditions: protein: recombinant; tags: N-terminal polyhistidine and DsRed monomer fusion (pET32a); label: CyDye5-dUTP incorporated in the synthesized complementary strand; 3' TTTTT single-stranded linker to array surface; dsDNA, one strand shown.
In short: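 The binding signal for each feature is its fluorescence intensity in arbitrary units. An Axon 4000B scanner was used to read a custom Agilent array that had been made double-stranded with Cy5-dUTP primer extension, blocked with 2% BSA, incubated at 25 °C for 1 h with 200 nM protein in PBS, 2% BSA, salmon testes DNA and 50 µM zinc acetate, and washed. The protein was an N-terminal polyhistidine–DsRed transcription factor fusion from E. coli BL21-CodonPlus, purified on Ni–NTA.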
“ATATGTTAGACATATTTGCACTCTTTACTTGCTTTCATGCCGGAGTCACCTAGTGCAG” was tested, and the binding signal was 9530 fluorescence intensity (a.u.).
With “GCTTACTATACTACTAATATATGGTCCCACCTGTCATACACGGAGTCACCTAGTGCAG” the binding signal was 8150 fluorescence intensity (a.u.).
In the case of “GGGGTGCGGCGATTTCTACTCCCTTGGAGCTTGCATATGACGGAGTCACCTAGTGCAG”, the binding signal is reported as 12200 fluorescence intensity (a.u.).
In the case of “GGATGGAGGGTGCATATGAGACAACAACATTTAGCTCTCTCGGAGTCACCTAGTGCAG”, the binding signal is reported as 8460 fluorescence intensity (a.u.).
With “CTGCTGCTTCTTGGGAAATTTGTGGACAAATCATTCGGGGCGGAGTCACCTAGTGCAG” the binding signal was 8440 fluorescence intensity (a.u.).
“AGGGTTTTGGTCAAGTTAGAGAGGCTATTGGAGGACGTTTCGGAGTCACCTAGTGCAG” was tested, and the binding signal was 8100 fluorescence intensity (a.u.).
For “TGCCTCTCAACTTTGGTCACATGCTTTGAATTCCAACTCACGGAGTCACCTAGTGCAG”, the binding signal was 12500 fluorescence intensity (a.u.).
“CGGTTCGCGCTGTTTTTCCTACGACACGCTCCAGTCAGGTCGGAGTCACCTAGTGCAG” was tested, and the binding signal was 8430 fluorescence intensity (a.u.).
“TTTTCGCCGTAATATAGCTCTCTTGTACTACTGACGTGCCCGGAGTCACCTAGTGCAG” was tested, and the binding signal was 9510 fluorescence intensity (a.u.).
“TGCTTTTTTTGGATTCCGCTTGCGCGGTTGCAGGTGGTGCCGGAGTCACCTAGTGCAG” was tested, and the binding signal was 8370 fluorescence intensity (a.u.).
With “TTCACTTGCCACATCATTTTTTGTCCTAAGTGACAACTTACGGAGTCACCTAGTGCAG” the binding signal was 10100 fluorescence intensity (a.u.).
With “GAGATCTTCGGTGTACTTTTTCTTATTTAGGCGTCACGTACGGAGTCACCTAGTGCAG” the binding signal was 10300 fluorescence intensity (a.u.).
For “ACCTCAACTTCTCATTCAATCACAACTCTCATCTATTTAACGGAGTCACCTAGTGCAG”, the binding signal was 8640 fluorescence intensity (a.u.).
For “ACTTCCGAAACCACCAGGGTAGTAGATTTGCAACAATTTTCGGAGTCACCTAGTGCAG”, the binding signal was 8160 fluorescence intensity (a.u.).
For “ATCAACCAGTAATCAATTGACCAAGCGGTTCTTGCGCCTACGGAGTCACCTAGTGCAG”, the binding signal was 9780 fluorescence intensity (a.u.).
“TCCGCTACTCTGTCCGCGGCCTGCTCGCGCTCCACTGCTCCGGAGTCACCTAGTGCAG” was tested, and the binding signal was 11600 fluorescence intensity (a.u.).
In the case of “AGTTATGTTTTTGATTTTCCGATATTTATGATCCTGTTACCGGAGTCACCTAGTGCAG”, the binding signal is reported as 8570 fluorescence intensity (a.u.).
For “GTCAGCGTGTCACGCGCCCACACCCACCCACGCACACCGACGGAGTCACCTAGTGCAG”, the binding signal was 8060 fluorescence intensity (a.u.).
With “TTCTACTAAGTCTGTTTCTAATCCTGTACTAACTGTCGACCGGAGTCACCTAGTGCAG” the binding signal was 8750 fluorescence intensity (a.u.).
For “CACTTACATGGCACATCACTCCAGCTTTACCAGCATCATTCGGAGTCACCTAGTGCAG”, the binding signal was 15600 fluorescence intensity (a.u.).
For “CATCTCTCGTTCTCTTTTTTCATTCTTGGAAATCTGCACCCGGAGTCACCTAGTGCAG”, the binding signal was 8150 fluorescence intensity (a.u.).
In the case of “CGGCGAGGCAGCTGGTTGTTTGTTGTTGGTTCCCTCTCCACGGAGTCACCTAGTGCAG”, the binding signal is reported as 8280 fluorescence intensity (a.u.).
In the case of “TTTCTTTTGCATTTTCCCTGTTCCATATCGTTTTTTTCTCCGGAGTCACCTAGTGCAG”, the binding signal is reported as 8560 fluorescence intensity (a.u.).
“ACTAGATCCTCAAGTCCATGATATACCAGGTTTGTCCTTCCGGAGTCACCTAGTGCAG” was tested, and the binding signal was 8090 fluorescence intensity (a.u.).
For “AACATATTTAAAAAAGTCAACGGTGCCAAATATTTTGGAACGGAGTCACCTAGTGCAG”, the binding signal was 13800 fluorescence intensity (a.u.).
“AATACTCCGTTTTACACCTATATTCTTACTTTATTATTATCGGAGTCACCTAGTGCAG” was tested, and the binding signal was 9330 fluorescence intensity (a.u.).
“GGTTTTTTTCCCGCTTATCCCACTTCTAGTCTATCTTTTTCGGAGTCACCTAGTGCAG” was tested, and the binding signal was 19300 fluorescence intensity (a.u.).
“CAAACCAAACGCCAATTAATGGCTTGACCAACCACCGCGCCGGAGTCACCTAGTGCAG” was tested, and the binding signal was 8500 fluorescence intensity (a.u.).
For “CGCCGCCATGGGAGCCGACCTGGACTTCTCGCCGCCGCCGCGGAGTCACCTAGTGCAG”, the binding signal was 8120 fluorescence intensity (a.u.).
“GCCTCCACATCCCTCTGCCCATCTCGATCCCCGCCGCGCCCGGAGTCACCTAGTGCAG” was tested, and the binding signal was 9630 fluorescence intensity (a.u.).
For “ACTTTCTAGCATTGCCCACATTCTTTTATATATATATATACGGAGTCACCTAGTGCAG”, the binding signal was 12500 fluorescence intensity (a.u.).
For “CTTCGTTTTATATCTCACAATAAAACTTTGCATGGTTGTCCGGAGTCACCTAGTGCAG”, the binding signal was 8500 fluorescence intensity (a.u.).
For “AGTCCATCTTAGGCTGTGTTTTTTTTAGGGGTTAATTAAGCGGAGTCACCTAGTGCAG”, the binding signal was 8990 fluorescence intensity (a.u.).
In the case of “TCATGTGAGGTTAGTTGGTGGCATATTGGCAAAAGTCTGTCGGAGTCACCTAGTGCAG”, the binding signal is reported as 9020 fluorescence intensity (a.u.).
In the case of “GGGGAGGTTGCTGCTGCTGCTGGGCGGGTGGGCGGAGGGGCGGAGTCACCTAGTGCAG”, the binding signal is reported as 28100 fluorescence intensity (a.u.).
“TTTCTGTATCCATCCCGCTCTCTCTCTCTCTCGACGAGAGCGGAGTCACCTAGTGCAG” was tested, and the binding signal was 8480 fluorescence intensity (a.u.).
With “GCCACCCACAAGCGCGACGTAAGCACTCTCAACTCGAATTCGGAGTCACCTAGTGCAG” the binding signal was 8260 fluorescence intensity (a.u.).
“ACAGCACCCGGTCTTTGAAAGCTACCACCCGGCGCGCGCGCGGAGTCACCTAGTGCAG” was tested, and the binding signal was 8780 fluorescence intensity (a.u.).
In the case of “GCCAGTTATCCGTTATCCACCACGAGGCCCAATTCGAACTCGGAGTCACCTAGTGCAG”, the binding signal is reported as 9140 fluorescence intensity (a.u.).
With “AGTTTTGAGAGTATATAATTTTGTTTTTTTGTCTCTGTATCGGAGTCACCTAGTGCAG” the binding signal was 8180 fluorescence intensity (a.u.).
“TTCATCTCCAACGTTTGATCGTTTGTCTTATTTGAATTTTCGGAGTCACCTAGTGCAG” was tested, and the binding signal was 8900 fluorescence intensity (a.u.).
In the case of “GCCAACTTCCGCTCGAGTTTATTTTATTTTTCTGAAAAAACGGAGTCACCTAGTGCAG”, the binding signal is reported as 8330 fluorescence intensity (a.u.).
